Results taken from PubChem BioAssay AID330 (DTP/NCI, 2004).
The list shows only some results of the screen, not a fair sample: it gathers tests that were run many times, whatever their T/C, doses with no T/C, and many T/C values between a quarter and a half above the control. Further doses and runs are listed elsewhere. T/C gives the treated animals as a percentage of the vehicle group. Some entries give survivors of the animals treated and no T/C: the source files T/C as zero there, which appears to mark a toxic dose or a test without result, not a measured value. Some survivor counts are full or nearly so, which does not show that the dose was tolerated: the source hardly ever lists a survival T/C far under the control, and the zero likely stands for such cases as well. Survivors were counted at the toxicity check, usually on the fifth day, unless a day is given; later deaths do not show. Schedules are NCI's codes, read here as Q, the interval in days (D) or hours (H), X, the number of doses. Some entries were tested several times; their values stand side by side, smallest first. For survival time, the PubChem record calls one and a half times the control and up active, and a quarter to a half above the control has no call in these data; cut-offs in other NCI protocols can differ. Some T/C values are followed by the survivors on the day toxicity was checked, most often the fifth; where none is given, no animal had died by that day.

Tested on: P388 leukemia ip, CD2F1 mice, survival T/C
Experiment: NCI In Vivo Anticancer Drug Screen. Data for tumor model P388 Leukemia (intraperitoneal) in CD2F1 (CDF1) mice
Conditions: T/C endpoint: median survival time, higher T/C = longer survival
[1] = dose: 60.0 mg/kg/injection, schedule: Q01DX005 (ip), vehicle: saline with Tween-80
[2] = dose: 25.0 mg/kg/injection, schedule: Q01DX009 (ip), vehicle: Klucel (hydroxypropylcellulose) (HPC)
[3] = dose: 50.0 mg/kg/injection, schedule: Q01DX009 (ip), vehicle: Klucel (hydroxypropylcellulose) (HPC)
[4] = dose: 50.0 mg/kg/injection, schedule: Q01DX009 (ip), vehicle: saline with Tween-80
[5] = dose: 100.0 mg/kg/injection, schedule: Q01DX009 (ip), vehicle: saline with Tween-80
[6] = dose: 240.0 mg/kg/injection, schedule: Q01DX005 (ip), vehicle: saline with Tween-80
[7] = dose: 120.0 mg/kg/injection, schedule: Q01DX005 (ip), vehicle: saline with Tween-80
[8] = dose: 400.0 mg/kg/injection, schedule: Q04DX002 (ip), vehicle: saline with Tween-80
[9] = dose: 200.0 mg/kg/injection, schedule: Q01DX009 (ip), vehicle: saline with Tween-80
[10] = dose: 12.5 mg/kg/injection, schedule: Q01DX005 (ip), vehicle: DMSO
[11] = dose: 25.0 mg/kg/injection, schedule: Q01DX005 (ip), vehicle: DMSO
[12] = dose: 75.5 mg/kg/injection, schedule: Q01DX009 (ip), vehicle: saline with Tween-80

N=C(N)SCCC(=O)NCNC(=O)CCSC(=N)N
survivor count (dose: 200.0 mg/kg/injection, schedule: Q01DX005 (ip), vehicle: suspension in saline): 0 of 6

O=C1C=CC(=O)[C@H]2CC=C3OC4OC5(CCCCC5)OC4[C@H]3[C@@H]12 (stereo partly specified)
survivor count [1]: 6 of 6

CC(=O)Oc1cc2c(=O)oc3c(OC(C)=O)c(OC(C)=O)c(OC(C)=O)c4c(=O)oc(c1OC(C)=O)c2c34
survivor count [2]: 6 of 6
survivor count [3]: 6 of 6
survivor count (dose: 100.0 mg/kg/injection, schedule: Q01DX009 (ip), vehicle: saline): 6 of 6
survivor count (dose: 400.0 mg/kg/injection, schedule: Q01DX009 (ip), vehicle: Klucel (hydroxypropylcellulose) (HPC)): 5 of 6

CNc1ccc(N=Nc2ccc3ncccc3c2)cc1
survivor count (dose: 25.0 mg/kg/injection, schedule: Q01DX009 (ip), vehicle: saline with Tween-80): 6 of 6
survivor count [4]: 4 of 6
survivor count [5]: 0 of 6

CC[n+]1ccc(C(=O)NN)cc1
survivor count (dose: 100.0 mg/kg/injection, schedule: Q04DX002 (ip), vehicle: saline): 2 of 6
survivor count (dose: 200.0 mg/kg/injection, schedule: Q04DX002 (ip), vehicle: saline): 3 of 6
survivor count (dose: 400.0 mg/kg/injection, schedule: Q04DX002 (ip), vehicle: saline): 2 of 6

CCc1nc(N)nc(N)c1-c1ccc(N(C)C)cc1
survivor count (dose: 100.0 mg/kg/injection, schedule: Q01DX005 (ip), vehicle: Klucel (hydroxypropylcellulose) (HPC)): 0 of 6
survivor count (dose: 200.0 mg/kg/injection, schedule: Q01DX005 (ip), vehicle: Klucel (hydroxypropylcellulose) (HPC)): 0 of 6

O=C(O)C1CSC(c2ccc(Cl)cc2)N1 (stereo unspecified)
survivor count (dose: 50.0 mg/kg/injection, schedule: Q01DX009 (ip), vehicle: suspension in saline): 6 of 6
survivor count (dose: 100.0 mg/kg/injection, schedule: Q01DX009 (ip), vehicle: suspension in saline): 6 of 6

O=C([CH-]C(=O)C(F)(F)F)C(F)(F)F.O=C([CH-]C(=O)C(F)(F)F)C(F)(F)F.O=C([CH-]C(=O)C(F)(F)F)C(F)(F)F.[Ru+3]
survivor count (dose: 30.0 mg/kg/injection, schedule: Q01DX005 (ip), vehicle: Klucel (hydroxypropylcellulose) (HPC)): 6 of 6
survivor count (dose: 60.0 mg/kg/injection, schedule: Q01DX005 (ip), vehicle: Klucel (hydroxypropylcellulose) (HPC)): 2 of 6
survivor count (dose: 120.0 mg/kg/injection, schedule: Q01DX005 (ip), vehicle: Klucel (hydroxypropylcellulose) (HPC)): 0 of 6
survivor count (dose: 240.0 mg/kg/injection, schedule: Q01DX005 (ip), vehicle: Klucel (hydroxypropylcellulose) (HPC)): 0 of 6

CCn1c(=O)c2ncnnc2n(CC)c1=O
survivor count [2]: 4 of 6
survivor count [3]: 1 of 6
survivor count (dose: 100.0 mg/kg/injection, schedule: Q01DX009 (ip), vehicle: Klucel (hydroxypropylcellulose) (HPC)): 2 of 6
survivor count (dose: 200.0 mg/kg/injection, schedule: Q01DX009 (ip), vehicle: Klucel (hydroxypropylcellulose) (HPC)): 0 of 6

NC(=S)N/N=C/c1cn(-c2ccc(N)cc2)cn1
survivor count (dose: 200.0 mg/kg/injection, schedule: Q04DX003 (ip), vehicle: Klucel (hydroxypropylcellulose) (HPC)): 0 of 6
survivor count (dose: 400.0 mg/kg/injection, schedule: Q04DX003 (ip), vehicle: Klucel (hydroxypropylcellulose) (HPC)): 0 of 6

CC(C)NCC(O)COc1cccc2[nH]c3ccccc3c12 (stereo unspecified)
survivor count [5]: 0 of 6

CCCCOC1NC(=O)Oc2ccccc21 (stereo unspecified)
T/C [6]: 137 % of control
survivor count (dose: 480.0 mg/kg/injection, schedule: Q01DX005 (ip), vehicle: saline with Tween-80): 0 of 6

CCC(Cl)C#N (stereo unspecified)
survivor count (dose: 30.0 mg/kg/injection, schedule: Q01DX005 (ip), vehicle: saline with Tween-80): 0 of 6
survivor count [1]: 0 of 6
survivor count [7]: 0 of 6
survivor count [6]: 0 of 6

CCCCCCCC(Nc1nncs1)Nc1nncs1
survivor count [7]: 6 of 6

O=Nc1c(O)c(Cl)cc2ccccc12
survivor count (dose: 12.5 mg/kg/injection, schedule: Q01DX005 (ip), vehicle: saline with Tween-80): 3 of 5
survivor count (dose: 50.0 mg/kg/injection, schedule: Q01DX005 (ip), vehicle: saline with Tween-80): 0 of 5
survivor count (dose: 100.0 mg/kg/injection, schedule: Q01DX005 (ip), vehicle: saline with Tween-80): 0 of 5
survivor count (dose: 200.0 mg/kg/injection, schedule: Q01DX005 (ip), vehicle: saline with Tween-80): 0 of 5

O=C1CSC(c2ccc(O)c(O)c2)N1c1nncs1 (stereo unspecified)
survivor count (dose: 100.0 mg/kg/injection, schedule: Q04DX002 (ip), vehicle: saline with Tween-80): 6 of 6
survivor count (dose: 200.0 mg/kg/injection, schedule: Q04DX002 (ip), vehicle: saline with Tween-80): 6 of 6
survivor count [8]: 6 of 6

c1cnc2c(c1)Sc1ncccc1S2
survivor count [9]: 2 of 6

Cc1ccc(C(=O)NCCN2CCN3Cc4[nH]c5ccccc5c4CC3C2)cc1 (stereo unspecified)
survivor count [8]: 2 of 6

CC(C)NCC(O)COc1ccc(OCc2ccccc2)c(OCc2ccccc2)c1 (stereo unspecified)
survivor count [5]: 1 of 6
survivor count [9]: 0 of 6

N#CN=CN1CC2CCC(CC2)C1
survivor count [4]: 0 of 6
survivor count [5]: 0 of 6
survivor count [9]: 0 of 6

COc1cc(NC(C)CCCNC(C)C)c2ncccc2c1OC (stereo unspecified)
survivor count (dose: 50.0 mg/kg/injection, schedule: Q01DX005 (ip), vehicle: saline): 0 of 5
survivor count (dose: 100.0 mg/kg/injection, schedule: Q01DX005 (ip), vehicle: saline): 0 of 5
survivor count (dose: 200.0 mg/kg/injection, schedule: Q01DX005 (ip), vehicle: saline): 0 of 5

COc1cc2c(oc(=O)c3cc(C)cc(OC)c32)c2c(C3OC(C)C(O)C(C)(O)C3O)ccc(O)c12 (stereo unspecified)
T/C (dose: 6.25 mg/kg/injection, schedule: Q01DX005 (ip), vehicle: DMSO): 127 % of control
T/C [10]: 140 % of control
survivor count [10]: 6 of 6
T/C [11]: 134 % of control
survivor count [11]: 6 of 6
survivor count (dose: 50.0 mg/kg/injection, schedule: Q01DX005 (ip), vehicle: DMSO): 6 of 6
survivor count (dose: 100.0 mg/kg/injection, schedule: Q01DX005 (ip), vehicle: DMSO): 6 of 6
survivor count (dose: 200.0 mg/kg/injection, schedule: Q01DX005 (ip), vehicle: DMSO): 6 of 6

COc1cc2c3c(cccc3c1)C(=O)N(CCN(C)C)C2=O
T/C (dose: 18.9 mg/kg/injection, schedule: Q01DX009 (ip), vehicle: saline with Tween-80): 100, 116, 124, 132 % of control
T/C (dose: 37.8 mg/kg/injection, schedule: Q01DX009 (ip), vehicle: saline with Tween-80): 111, 119 [5 of 6 alive], 132, 139 % of control
T/C [12]: 96 [5 of 6 alive], 119 [4 of 6 alive], 121 % of control
survivor count [12]: 6 of 6
survivor count (dose: 151.0 mg/kg/injection, schedule: Q01DX009 (ip), vehicle: saline with Tween-80): 3 of 6 and 4 of 6

NNc1ccc2cccc([N+](=O)[O-])c2n1
survivor count (dose: 200.0 mg/kg/injection, schedule: Q01DX009 (ip), vehicle: other): 3 of 6
survivor count (dose: 400.0 mg/kg/injection, schedule: Q01DX009 (ip), vehicle: other): 2 of 6
